{
  "source": "paper PMC5996148",
  "assay_in_all_cases": "protein microarray (ProtoArray v5.0), streptavidin-Alexa Fluor 647",
  "conditions_in_all_cases": "3'-biotin; 20 mM Tris (pH 7.5), 5 mM MgCl2, 100 mM KCl, 0.1% Tween-20, A/T-rich and random oligonucleotide blockers; temperature not stated; high values mean tight binding",
  "key": {"FAM128A (human)": {"test_system": "FAM128A (human)"}, "FAM131C (human)": {"test_system": "FAM131C (human)"}, "FAM134B (human)": {"test_system": "FAM134B (human)"}, "FAM136A (human)": {"test_system": "FAM136A (human)"}, "FAM13A1": {"target": "T1, FAM13A1 (UniProt O94988)", "T1 sequence": "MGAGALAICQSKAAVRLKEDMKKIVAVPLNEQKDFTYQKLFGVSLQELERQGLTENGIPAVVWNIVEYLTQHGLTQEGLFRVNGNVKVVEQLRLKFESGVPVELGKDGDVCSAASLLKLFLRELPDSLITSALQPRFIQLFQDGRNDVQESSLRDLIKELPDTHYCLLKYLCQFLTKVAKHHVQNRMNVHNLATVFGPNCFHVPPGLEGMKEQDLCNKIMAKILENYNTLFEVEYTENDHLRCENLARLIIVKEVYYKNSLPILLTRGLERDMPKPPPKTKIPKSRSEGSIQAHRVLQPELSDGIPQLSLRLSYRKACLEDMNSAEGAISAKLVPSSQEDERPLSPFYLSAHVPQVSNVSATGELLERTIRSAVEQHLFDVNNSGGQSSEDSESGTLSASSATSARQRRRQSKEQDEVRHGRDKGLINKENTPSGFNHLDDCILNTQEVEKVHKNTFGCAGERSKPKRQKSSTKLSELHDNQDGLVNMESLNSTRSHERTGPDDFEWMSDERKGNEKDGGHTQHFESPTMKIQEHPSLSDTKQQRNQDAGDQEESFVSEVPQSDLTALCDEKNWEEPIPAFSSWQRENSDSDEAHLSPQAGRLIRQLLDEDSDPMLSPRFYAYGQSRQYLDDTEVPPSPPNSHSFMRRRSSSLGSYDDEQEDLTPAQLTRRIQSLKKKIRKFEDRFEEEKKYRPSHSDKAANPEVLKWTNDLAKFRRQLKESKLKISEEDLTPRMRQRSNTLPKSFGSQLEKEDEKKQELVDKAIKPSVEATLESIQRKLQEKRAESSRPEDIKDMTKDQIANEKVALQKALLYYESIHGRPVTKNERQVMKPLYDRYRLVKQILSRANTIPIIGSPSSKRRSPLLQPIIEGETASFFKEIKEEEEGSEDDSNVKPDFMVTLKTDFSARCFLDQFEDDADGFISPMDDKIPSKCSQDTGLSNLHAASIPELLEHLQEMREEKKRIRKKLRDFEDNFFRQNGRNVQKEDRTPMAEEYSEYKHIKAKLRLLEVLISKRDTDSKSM"}, "FAM19A3 (human)": {"test_system": "FAM19A3 (human)"}, "FAM21C (human)": {"test_system": "FAM21C (human)"}, "FAM26A (human)": {"test_system": "FAM26A (human)"}, "FAM33A (human)": {"test_system": "FAM33A (human)"}, "FAM3A (human)": {"test_system": "FAM3A (human)"}, "FAM40B (human)": {"test_system": "FAM40B (human)"}, "FAM44B (human)": {"test_system": "FAM44B (human)"}, "FAM57A (human)": {"test_system": "FAM57A (human)"}, "FAM70B (human)": {"test_system": "FAM70B (human)"}, "FAM80A (human)": {"test_system": "FAM80A (human)"}, "FAM82C (human)": {"test_system": "FAM82C (human)"}, "FAM84A (human)": {"test_system": "FAM84A (human)"}, "FAM9C (human)": {"test_system": "FAM9C (human)"}, "FANCG (human)": {"test_system": "FANCG (human)"}, "FANCI (human)": {"test_system": "FANCI (human)"}},
  "note": "Values joined by “and” are separate entries in the source; they are usually repeats but may differ in a detail not shown here. Equal entries are not always repeated. Some of the results follow. For some assays here: Construct or isoform of the protein are uncertain.",
  "data": [
    {"sequence": "GGGAGGCTGAGGCAGG [G4-1 biotinylated (PQS2)]", "values": [
      {"measurement": "binding signal", "setting": "FAM128A (human)", "result": -0.308, "unit": "z-score"},
      {"measurement": "binding signal", "setting": "FAM131C (human)", "result": -0.323, "unit": "z-score"},
      {"measurement": "binding signal", "setting": "FAM134B (human)", "result": -0.332, "unit": "z-score"},
      {"measurement": "binding signal", "setting": "FAM136A (human)", "result": -0.335, "unit": "z-score"},
      {"measurement": "binding signal", "setting": "FAM13A1", "result": -0.306, "unit": "z-score"},
      {"measurement": "binding signal", "setting": "FAM19A3 (human)", "result": -0.264, "unit": "z-score"},
      {"measurement": "binding signal", "setting": "FAM21C (human)", "result": -0.308, "unit": "z-score"},
      {"measurement": "binding signal", "setting": "FAM26A (human)", "result": -0.338, "unit": "z-score"},
      {"measurement": "binding signal", "setting": "FAM33A (human)", "result": -0.289, "unit": "z-score"},
      {"measurement": "binding signal", "setting": "FAM3A (human)", "result": "-0.333 z-score and -0.305 z-score"},
      {"measurement": "binding signal", "setting": "FAM40B (human)", "result": -0.267, "unit": "z-score"},
      {"measurement": "binding signal", "setting": "FAM44B (human)", "result": -0.374, "unit": "z-score"},
      {"measurement": "binding signal", "setting": "FAM57A (human)", "result": -0.248, "unit": "z-score"},
      {"measurement": "binding signal", "setting": "FAM70B (human)", "result": -0.316, "unit": "z-score"},
      {"measurement": "binding signal", "setting": "FAM80A (human)", "result": -0.331, "unit": "z-score"},
      {"measurement": "binding signal", "setting": "FAM82C (human)", "result": -0.343, "unit": "z-score"},
      {"measurement": "binding signal", "setting": "FAM84A (human)", "result": -0.316, "unit": "z-score"},
      {"measurement": "binding signal", "setting": "FAM9C (human)", "result": -0.333, "unit": "z-score"},
      {"measurement": "binding signal", "setting": "FANCG (human)", "result": -0.347, "unit": "z-score"},
      {"measurement": "binding signal", "setting": "FANCI (human)", "result": -0.356, "unit": "z-score"}
    ]}
  ]
}
